Sequences of proteins named here, by UniProt entry; tags and fusion partners are left off. A change or cut given only in a name is not applied to a line headed by its entry.
UniProt Q9BJF5: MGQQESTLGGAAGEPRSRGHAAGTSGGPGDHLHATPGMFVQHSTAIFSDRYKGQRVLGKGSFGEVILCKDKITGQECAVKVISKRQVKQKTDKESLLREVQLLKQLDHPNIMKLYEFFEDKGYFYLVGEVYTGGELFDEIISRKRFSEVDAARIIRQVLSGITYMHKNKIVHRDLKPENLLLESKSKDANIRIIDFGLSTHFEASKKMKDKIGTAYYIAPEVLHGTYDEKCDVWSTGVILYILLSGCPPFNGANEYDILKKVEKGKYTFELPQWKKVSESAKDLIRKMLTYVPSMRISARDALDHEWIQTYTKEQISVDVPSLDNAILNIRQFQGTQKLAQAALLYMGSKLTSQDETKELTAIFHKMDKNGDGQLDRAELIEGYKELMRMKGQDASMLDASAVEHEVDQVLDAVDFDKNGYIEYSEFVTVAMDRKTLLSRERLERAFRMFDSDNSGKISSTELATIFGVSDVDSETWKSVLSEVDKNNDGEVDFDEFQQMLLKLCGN
UniProt A0A125YK01: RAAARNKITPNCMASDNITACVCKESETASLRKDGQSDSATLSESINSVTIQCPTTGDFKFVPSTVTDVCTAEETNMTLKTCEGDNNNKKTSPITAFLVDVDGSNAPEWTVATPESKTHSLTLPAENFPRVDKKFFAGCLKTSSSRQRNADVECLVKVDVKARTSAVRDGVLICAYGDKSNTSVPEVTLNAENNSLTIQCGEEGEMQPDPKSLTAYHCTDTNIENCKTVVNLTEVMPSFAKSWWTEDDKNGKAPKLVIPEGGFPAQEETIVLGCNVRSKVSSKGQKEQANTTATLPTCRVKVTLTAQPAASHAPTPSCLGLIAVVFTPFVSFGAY
UniProt Q969A8: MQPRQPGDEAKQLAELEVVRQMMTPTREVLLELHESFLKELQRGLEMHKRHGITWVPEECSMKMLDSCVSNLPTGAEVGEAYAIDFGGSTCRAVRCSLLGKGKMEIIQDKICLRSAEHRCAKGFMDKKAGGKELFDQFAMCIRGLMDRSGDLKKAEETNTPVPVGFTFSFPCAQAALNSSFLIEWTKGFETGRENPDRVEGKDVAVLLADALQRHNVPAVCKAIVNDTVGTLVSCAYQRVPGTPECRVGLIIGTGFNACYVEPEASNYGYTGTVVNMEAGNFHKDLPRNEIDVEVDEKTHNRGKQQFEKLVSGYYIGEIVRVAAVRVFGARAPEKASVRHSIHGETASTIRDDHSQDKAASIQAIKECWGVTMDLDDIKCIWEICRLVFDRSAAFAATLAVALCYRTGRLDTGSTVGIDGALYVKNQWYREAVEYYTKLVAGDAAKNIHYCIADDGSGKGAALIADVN

In publication PMC10629828:

Target: HA-tagged WT CDPK1 complement (cWT), Ca2+-dependent protein kinase 1 (Toxoplasma gondii) (UniProt Q9BJF5)
Assay: affinity purification with mass spectrometry; anti-HA magnetic beads, 1 hr rotating at room temperature; hypotonic lysate (10 mM HEPES pH 7.5, no detergent) brought to 150 mM NaCl; parasites treated with auxin to deplete endogenous mAID-tagged CDPK1; cWT and cMut against untagged TIR1 control; DIA-MS, n = 2

For “SRS36D (TGGT1_292280) (from UniProt A0A125YK01)”, the binding was “binds”.

With “hexokinase (TGGT1_265450) (from UniProt Q969A8) (enzyme)” the binding was “binds”.

No constants are given. Whether binding was seen depends on the method and setting. Binding seen in cells or lysates may run through a third protein. A yes stands for co-enrichment or nearness to the bait. Other partners may have been found.
